{"source": "patent US20150164762A1", "about": "“USE OF ETHANOLAMINE PHOSPHATE” (priority 2012, published 2015)", "system": "BEAS-2B", "test": "Gene Ontology (GO) analysis of genes differentially expressed by EP", "set-up": "species or system human", "settings": "for % Count in Selection / Count in Selection: genes reduced by EP", "key": {"[1]": {"settings": "GO: 0000236 mitotic prometaphase"}, "[2]": {"settings": "GO: 0000778 condensed nuclear chromosome kinetochore"}, "[3]": {"settings": "GO: 0000780 condensed nuclear chromosome, centromeric region"}, "[4]": {"settings": "GO: 0001568 blood vessel development"}, "[5]": {"settings": "GO: 0001944 vasculature development"}, "[6]": {"settings": "GO: 0002861 regulation of inflammatory response to antigenic stimulus"}, "[7]": {"settings": "GO: 0005578 proteinaceous extracellular matrix"}, "[8]": {"settings": "GO: 0006334 nucleosome assembly"}, "[9]": {"settings": "GO: 0006355 regulation of transcription, DNA-dependent"}, "[10]": {"settings": "GO: 0006917 induction of apoptosis"}, "[11]": {"settings": "GO: 0007275 multicellular organismal development"}, "[12]": {"settings": "GO: 0010941 regulation of cell death"}, "[13]": {"settings": "GO: 0010942 positive regulation of cell death"}, "[14]": {"settings": "GO: 0016043 cellular component organization"}, "[15]": {"settings": "GO: 0030154 cell differentiation"}, "[16]": {"settings": "GO: 0030517 negative regulation of axon extension"}, "[17]": {"settings": "GO: 0032502 developmental process"}, "[18]": {"settings": "GO: 0034728 nucleosome organization"}, "[19]": {"settings": "GO: 0042981 regulation of apoptosis"}, "[20]": {"settings": "GO: 0043065 positive regulation of apoptosis"}, "[21]": {"settings": "GO: 0048514 blood vessel morphogenesis"}, "[22]": {"settings": "GO: 0048869 cellular developmental process"}, "[23]": {"settings": "GO: 0050793 regulation of developmental process"}, "[24]": {"settings": "GO: 0051252 regulation of RNA metabolic process"}, "[25]": {"settings": "GO: 0051984 positive regulation of chromosome segregation"}, "[26]": {"settings": "GO: 0051987 positive regulation of attachment of spinde microtubules to kinetochore"}, "[27]": {"settings": "GO: 0065004 protein-DNA complex assembly"}, "[28]": {"settings": "GO: 0071824 protein-DNA complex subunit organization"}, "[29]": {"settings": "GO: 0085007 biological regulation"}}}
{"smiles": "NCCOP(=O)(O)O", "note": "[EP, Ethanolamine phosphate]", "values": [{"measurement": "number of genes with reduced expression associated with regulation of apoptosis (GO: 0042981)", "setting": "1 mM EP, 24 h", "value": 123}, {"measurement": "% Count in Selection, genes increased by EP", "setting": "[1]", "value": "2.99E−01", "unit": "%"}, {"measurement": "Count in Selection, genes increased by EP", "setting": "[1]", "value": 2}, {"measurement": "% Count in Selection, genes increased by EP", "setting": "[2]", "value": "4.48E−01", "unit": "%"}, {"measurement": "Count in Selection, genes increased by EP", "setting": "[2]", "value": 3}, {"measurement": "% Count in Selection, genes increased by EP", "setting": "[3]", "value": "5.98E−01", "unit": "%"}, {"measurement": "Count in Selection, genes increased by EP", "setting": "[3]", "value": 4}, {"measurement": "% Count in Selection, genes increased by EP", "setting": "GO: 0001525 angiogenesis", "value": "2.09E+00", "unit": "%"}, {"measurement": "Count in Selection, genes increased by EP", "setting": "GO: 0001525 angiogenesis", "value": 14}, {"measurement": "% Count in Selection, genes increased by EP", "setting": "[4]", "value": "2.99E+00", "unit": "%"}, {"measurement": "Count in Selection, genes increased by EP", "setting": "[4]", "value": 20}, {"measurement": "% Count in Selection, genes increased by EP", "setting": "[5]", "value": "2.99E+00", "unit": "%"}, {"measurement": "Count in Selection, genes increased by EP", "setting": "[5]", "value": 20}, {"measurement": "% Count in Selection, genes increased by EP", "setting": "[6]", "value": "4.48E−01", "unit": "%"}, {"measurement": "Count in Selection, genes increased by EP", "setting": "[6]", "value": 3}, {"measurement": "% Count in Selection, genes increased by EP", "setting": "[7]", "value": "3.59E+00", "unit": "%"}, {"measurement": "Count in Selection, genes increased by EP", "setting": "[7]", "value": 24}, {"measurement": "% Count in Selection, genes increased by EP", "setting": "GO: 0005607 laminin-2 complex", "value": "2.99E−01", "unit": "%"}, {"measurement": "Count in Selection, genes increased by EP", "setting": "GO: 0005607 laminin-2 complex", "value": 2}, {"measurement": "% Count in Selection, genes increased by EP", "setting": "[8]", "value": "1.35E+00", "unit": "%"}, {"measurement": "Count in Selection, genes increased by EP", "setting": "[8]", "value": 9}, {"measurement": "% Count in Selection", "setting": "[9]", "value": "1.38E+01", "unit": "%"}, {"measurement": "Count in Selection", "setting": "[9]", "value": 208}, {"measurement": "% Count in Selection", "setting": "[10]", "value": "4.08E+00", "unit": "%"}, {"measurement": "Count in Selection", "setting": "[10]", "value": 61}, {"measurement": "% Count in Selection", "setting": "[11]", "value": "2.05E+01", "unit": "%"}, {"measurement": "Count in Selection", "setting": "[11]", "value": 306}, {"measurement": "% Count in Selection", "setting": "[12]", "value": "8.23E+00", "unit": "%"}, {"measurement": "Count in Selection", "setting": "[12]", "value": 123}, {"measurement": "% Count in Selection", "setting": "[13]", "value": "4.95E+00", "unit": "%"}, {"measurement": "Count in Selection", "setting": "[13]", "value": 74}, {"measurement": "% Count in Selection, genes increased by EP", "setting": "[14]", "value": "1.96E+01", "unit": "%"}, {"measurement": "Count in Selection, genes increased by EP", "setting": "[14]", "value": 131}, {"measurement": "% Count in Selection", "setting": "[15]", "value": "1.33E+01", "unit": "%"}, {"measurement": "Count in Selection", "setting": "[15]", "value": 199}, {"measurement": "% Count in Selection, genes increased by EP", "setting": "[16]", "value": "4.48E−01", "unit": "%"}, {"measurement": "Count in Selection, genes increased by EP", "setting": "[16]", "value": 3}, {"measurement": "% Count in Selection, genes increased by EP", "setting": "GO: 0031577 spindle checkpoint", "value": "5.98E−01", "unit": "%"}, {"measurement": "Count in Selection, genes increased by EP", "setting": "GO: 0031577 spindle checkpoint", "value": 4}, {"measurement": "% Count in Selection", "setting": "[17]", "value": "2.29E+01", "unit": "%"}, {"measurement": "Count in Selection", "setting": "[17]", "value": 343}, {"measurement": "% Count in Selection, genes increased by EP", "setting": "[18]", "value": "1.49E+00", "unit": "%"}, {"measurement": "Count in Selection, genes increased by EP", "setting": "[18]", "value": 10}, {"measurement": "% Count in Selection", "setting": "[19]", "value": "8.23E+00", "unit": "%"}, {"measurement": "Count in Selection", "setting": "[19]", "value": 123}, {"measurement": "% Count in Selection", "setting": "[20]", "value": "4.95E+00", "unit": "%"}, {"measurement": "Count in Selection", "setting": "[20]", "value": 74}, {"measurement": "% Count in Selection", "setting": "GO: 0048513 organ development", "value": "1.22E+01", "unit": "%"}, {"measurement": "Count in Selection", "setting": "GO: 0048513 organ development", "value": 183}, {"measurement": "% Count in Selection, genes increased by EP", "setting": "[21]", "value": "2.69E+00", "unit": "%"}, {"measurement": "Count in Selection, genes increased by EP", "setting": "[21]", "value": 18}, {"measurement": "% Count in Selection", "setting": "[22]", "value": "1.36E+01", "unit": "%"}, {"measurement": "Count in Selection", "setting": "[22]", "value": 203}, {"measurement": "% Count in Selection", "setting": "[23]", "value": "5.95E+00", "unit": "%"}, {"measurement": "Count in Selection", "setting": "[23]", "value": 89}, {"measurement": "% Count in Selection", "setting": "[24]", "value": "1.41E+01", "unit": "%"}, {"measurement": "Count in Selection", "setting": "[24]", "value": 211}, {"measurement": "% Count in Selection, genes increased by EP", "setting": "[25]", "value": "2.99E−01", "unit": "%"}, {"measurement": "Count in Selection, genes increased by EP", "setting": "[25]", "value": 2}, {"measurement": "% Count in Selection, genes increased by EP", "setting": "[26]", "value": "2.99E−01", "unit": "%"}, {"measurement": "Count in Selection, genes increased by EP", "setting": "[26]", "value": 2}, {"measurement": "% Count in Selection, genes increased by EP", "setting": "[27]", "value": "1.49E+00", "unit": "%"}, {"measurement": "Count in Selection, genes increased by EP", "setting": "[27]", "value": 10}, {"measurement": "% Count in Selection, genes increased by EP", "setting": "[28]", "value": "1.64E+00", "unit": "%"}, {"measurement": "Count in Selection, genes increased by EP", "setting": "[28]", "value": 11}, {"measurement": "% Count in Selection", "setting": "[29]", "value": "5.28E+01", "unit": "%"}, {"measurement": "Count in Selection", "setting": "[29]", "value": 790}]}
